The record followed here is patent US9198420B2, “Rodenticidal norbormide analogues” (priority 2012, dated 2015).

The subject of data set [1] is Sprague Dawley rats. As to the kind of experiment: Palatability (no-choice) trial, peanut butter bait. In kind it is in vivo, rat (Sprague Dawley). The following applies: for Bait consumed (g) (of 5 g): n = 6, male rats only, Table 10. The text has this: In the palatability trials, Sprague Dawley rats (ca. 250 g) were presented with 1% w/w compound (n=6) or 0.5% w/w compound (n=5) in a peanut butter bait, following 3 days ‘pre-baiting’ with a peanut butter formulation free of toxicant.

Data set [2] concerns Sprague Dawley rats. Briefly: Palatability (choice) trial, peanut butter bait. The following applies: 2 days. In kind it is in vivo, rat (Sprague Dawley).
The mark [3] stands for this setting: 1% w/w toxicant in peanut butter bait, n = 6, 3 male and 3 female rats, Table 12.
Setting [4] is: 1% w/w toxicant in peanut butter bait, n = 6, 3 male and 3 female rats, Table 11.
[5] abbreviates: 2% w/w toxicant in peanut butter bait, n = 6, Table 12.
The mark [6] stands for this setting: choice of EPA diet (20 g) and bait with 1% w/w toxicant (20 g), n = 2, Table 15.
Where [7] appears, read: 1% w/w toxicant in peanut butter bait.
Where [8] appears, read: choice of EPA diet (20 g) and bait with 1% w/w toxicant (20 g), n = 12, Table 14.
The mark [9] stands for this setting: choice of standard lab pellets (20 g) and bait with 1% w/w toxicant (20 g), n = 12, Table 13.

`CCOc1ccc(C=CC(=O)NCCN2C(=O)C3C4C=C(C(O)(c5ccccc5)c5ccccn5)C(C4=C(c4ccccc4)c4ccccn4)C3C2=O)cc1` (stereo not drawn) [Compound 345, N-[2′-(4″-Ethoxycinnamamido)ethyl]-5-(α-hydroxy-α-2-pyridylbenzyl)-7-(α-2-pyridylbenzylidene)-5-norbornene-2,3-dicarboximide]: in the data set on Sprague Dawley rats [1] (setting [3]), the “Ave. bait consumed (as % of body mass)” value is on record as 0.54 % of body mass, the “Bait consumed (g) (of 3 g)” value worked out at 1.55 g and the “Maximum toxicant consumed” value is recorded as 41 mg/kg.
With `O=C(Cc1ccccc1)OCN1C(=O)C2C3C=C(C(O)(c4ccccc4)c4ccccn4)C(C3=C(c3ccccc3)c3ccccn3)C2C1=O` (stereo not drawn) [Compound 16, 5-(α-Hydroxy-α-2-pyridylbenzyl)-N-phenylacetyloxymethyl-7-(α-2-pyridylbenzylidene)-5-norbornene-2,3-dicarboximide], in the data set on Sprague Dawley rats [1] (setting [4]), the “Ave. bait consumed (% of body mass)” value is listed as 0.53 % of body mass, the “Bait consumed (g) (of 3 g)” value stood at 1.15 g and the “Maximum toxicant consumed” value came to 42 mg/kg.
Turning to `CCCCCCCCCCCC(=O)NCCN1C(=O)C2C3C=C(C(O)(c4ccccc4)c4ccccn4)C(C3=C(c3ccccc3)c3ccccn3)C2C1=O` (stereo not drawn) [Compound 339, N-2′-Dodecanamidoethyl-5-(α-hydroxy-α-2-pyridylbenzyl)-7-(α-2-pyridylbenzylidene)-5-norbornene-2,3-dicarboximide], in the data set on Sprague Dawley rats [1] (setting [3]), the “Ave. bait consumed (as % of body mass)” value is 0.89 % of body mass, the “Bait consumed (g) (of 3 g)” value is given as 1.97 g and the “Maximum toxicant consumed” value is recorded as 67 mg/kg. Besides, in the data set on Sprague Dawley rats [1] (setting [5]), the “Ave. bait consumed (as % of body mass)” value is 0.34 % of body mass, the “Bait consumed (g) (of 3 g)” value is 0.7 g and the “Maximum toxicant consumed” value worked out at 50 mg/kg. Besides, in the data set on Sprague Dawley rats [2] (setting [6]), the “Ave. Toxic bait consumed” value came out at 3.71 g, the “Ave. toxic bait consumed (% of body mass)” value was 1.23 % of body mass and the “Maximum toxicant consumed” value was found to be 92 mg/kg.
Take `CCc1ccc(C=CC(=O)OCCN2C(=O)C3C4C=C(C(O)(c5ccccc5)c5ccccn5)C(C4=C(c4ccccc4)c4ccccn4)C3C2=O)cc1` (stereo not drawn) [Compound 335, N-[2′-(4″-Ethylcinnamoyloxy)ethyl]-5-(α-hydroxy-α-2-pyridylbenzyl)-7-(α-2-pyridylbenzylidene)-5-norbornene-2,3-dicarboximide]: in the data set on Sprague Dawley rats [1] (setting [4]), the “Ave. bait consumed (% of body mass)” value was 1.08 % of body mass, the “Bait consumed (g) (of 3 g)” value was determined as 2.23 g and the “Maximum toxicant consumed” value came out at 87 mg/kg. Moreover, in the data set with Sprague Dawley rats [2] (setting [6]), the “Ave. Toxic bait consumed” value is reported as 3.32 g, the “Ave. toxic bait consumed (% of body mass)” value is given as 0.94 % of body mass and the “Maximum toxicant consumed” value is 80 mg/kg.
On to `COc1ccc(C=CC(=O)OCCN2C(=O)C3C4C=C(C(O)(c5ccccc5)c5ccccn5)C(C4=C(c4ccccc4)c4ccccn4)C3C2=O)cc1` (stereo not drawn) [Compound 126, 5-(α-Hydroxy-α-2-pyridylbenzyl)-N-[2′-(4″-methoxycinnamoyloxy)ethyl]-7-(α-2-pyridylbenzylidene)-5-norbornene-2,3-dicarboximide], for which the “Bait consumed (g) (of 5 g)” value in the data set with Sprague Dawley rats [1] (setting [7]) was 4.0 ± 0.4 g. Moreover, in the data set with Sprague Dawley rats [2] (setting [8]), the “Ave. Toxic bait consumed” value is 1.62 g, the “Ave. toxic bait consumed (% of body mass)” value is 0.45 % of body mass and the “Maximum toxicant consumed” value was 38 mg/kg. Besides, in the data set with Sprague Dawley rats [2] (setting [9]), the “Ave. Toxic bait consumed” value came to 1.98 g, the “Ave. toxic bait consumed (% of body mass)” value is 0.60 % of body mass and the “Maximum toxicant consumed” value amounted to 47 mg/kg.
As to `CCCCCCCC(=O)OCN1C(=O)C2C3C=C(C(O)(c4ccccc4)c4ccccn4)C(C3=C(c3ccccc3)c3ccccn3)C2C1=O` (stereo not drawn) [Compound 10, 5-(α-Hydroxy-α-2-pyridylbenzyl)-N-octanoyloxymethyl-7-(α-2-pyridylbenzylidene)-5-norbornene-2,3-dicarboximide], in the data set on Sprague Dawley rats [1] (setting [4]), the “Ave. bait consumed (% of body mass)” value is listed as 0.84 % of body mass, the “Bait consumed (g) (of 3 g)” value came out at 1.65 g and the “Maximum toxicant consumed” value is 64 mg/kg.
Turning to `O=C1NC(=O)C2C3C(C(O)(c4ccccc4)c4ccccn4)=CC(C3=C(c3ccccc3)c3ccccn3)C12` (stereo not drawn) [endo-NRB, 5-(α-Hydroxy-α-2-pyridylbenzyl)-7-(α-2-pyridylbenzylidene)-5-norbornene-2,3-dicarboximide, reference compound], in the data set with Sprague Dawley rats [1] (setting [4]), the “Ave. bait consumed (% of body mass)” value is on record as 0.65 % of body mass, the “Bait consumed (g) (of 3 g)” value was 1.30 g and the “Maximum toxicant consumed” value came to 66 mg/kg. Moreover, in the data set with Sprague Dawley rats [1] (setting [3]), the “Ave. bait consumed (as % of body mass)” value is 0.26 % of body mass, the “Bait consumed (g) (of 3 g)” value came to 0.37 g and the “Maximum toxicant consumed” value amounted to 26 mg/kg. The “Bait consumed (g) (of 5 g)” value in the data set on Sprague Dawley rats [1] (setting [7]) stood at 1.9 ± 0.5 g.
For `NCc1ccc(C(=O)OCCN2C(=O)C3C4C=C(C(O)(c5ccccc5)c5ccccn5)C(C4=C(c4ccccc4)c4ccccn4)C3C2=O)cc1.O=C(O)C(F)(F)F` (stereo not drawn) [Compound 342, N-[2′-(4-Aminomethylbenzoyloxy)ethyl]-5-(α-hydroxy-α-2-pyridylbenzyl)-7-(α-2-pyridylbenzylidene)-5-norbornene-2,3-dicarboximide trifluoroacetate], in the data set with Sprague Dawley rats [1] (setting [4]), the “Ave. bait consumed (% of body mass)” value was 0.61 % of body mass, the “Bait consumed (g) (of 3 g)” value was 1.37 g and the “Maximum toxicant consumed” value is listed as 46 mg/kg.
For `CCCCCCCC(=O)OCCN1C(=O)C2C3C=C(C(O)(c4ccccc4)c4ccccn4)C(C3=C(c3ccccc3)c3ccccn3)C2C1=O` (stereo not drawn) [Compound 111, 5-(α-Hydroxy-α-2-pyridylbenzyl)-N-2′-octanoyloxyethyl-7-(α-2-pyridylbenzylidene)-5-norbornene-2,3-dicarboximide], in the data set with Sprague Dawley rats [1] (setting [4]), the “Ave. bait consumed (% of body mass)” value is 0.48 % of body mass, the “Bait consumed (g) (of 3 g)” value stood at 1.00 g and the “Maximum toxicant consumed” value is reported as 40 mg/kg.
Consider `O=C(C=Cc1ccccc1)OCN1C(=O)C2C3C=C(C(O)(c4ccccc4)c4ccccn4)C(C3=C(c3ccccc3)c3ccccn3)C2C1=O` (stereo not drawn) [Compound 19, N-Cinnamoyloxymethyl-5-(α-hydroxy-α-2-pyridylbenzyl)-7-(α-2-pyridylbenzylidene)-5-norbornene-2,3-dicarboximide], for which, in the data set on Sprague Dawley rats [1] (setting [7]), the “Bait consumed (g) (of 5 g)” value is 4.3 ± 0.2 g. In the data set on Sprague Dawley rats [2] (setting [8]), the “Ave. Toxic bait consumed” value worked out at 1.16 g, the “Ave. toxic bait consumed (% of body mass)” value is 0.33 % of body mass and the “Maximum toxicant consumed” value came to 24 mg/kg. Besides, in the data set on Sprague Dawley rats [2] (setting [9]), the “Ave. Toxic bait consumed” value is 1.81 g, the “Ave. toxic bait consumed (% of body mass)” value was 0.54 % of body mass and the “Maximum toxicant consumed” value turned out to be 40 mg/kg.
With `Cc1ccc(CC(=O)OCN2C(=O)C3C4C=C(C(O)(c5ccccc5)c5ccccn5)C(C4=C(c4ccccc4)c4ccccn4)C3C2=O)cc1` (stereo not drawn) [Compound 324, 5-(α-Hydroxy-α-2-pyridylbenzyl)-N-4-methylphenylacetoyloxymethyl-7-(α-2-pyridylbenzylidene)-5-norbornene-2,3-dicarboximide], in the data set with Sprague Dawley rats [1] (setting [4]), the “Ave. bait consumed (% of body mass)” value is on record as 1.01 % of body mass, the “Bait consumed (g) (of 3 g)” value was 2.00 g and the “Maximum toxicant consumed” value is recorded as 80 mg/kg. Also, in the data set with Sprague Dawley rats [2] (setting [6]), the “Ave. Toxic bait consumed” value was 2.92 g, the “Ave. toxic bait consumed (% of body mass)” value was 0.90 % of body mass and the “Maximum toxicant consumed” value is given as 68 mg/kg.
For the molecule `CC(=Cc1ccccc1)C(=O)OCCN1C(=O)C2C3C=C(C(O)(c4ccccc4)c4ccccn4)C(C3=C(c3ccccc3)c3ccccn3)C2C1=O` (stereo not drawn) [Compound 121, 5-(α-Hydroxy-α-2-pyridylbenzyl)-N-2′-α-methylcinnamoyloxyethyl-7-(α-2-pyridylbenzylidene)-5-norbornene-2,3-dicarboximide], in the data set with Sprague Dawley rats [1] (setting [4]), the “Ave. bait consumed (% of body mass)” value is given as 1.03 % of body mass, the “Bait consumed (g) (of 3 g)” value is reported as 2.10 g and the “Maximum toxicant consumed” value is recorded as 85 mg/kg. Further, in the data set with Sprague Dawley rats [2] (setting [6]), the “Ave. Toxic bait consumed” value turned out to be 2.70 g, the “Ave. toxic bait consumed (% of body mass)” value is 0.82 % of body mass and the “Maximum toxicant consumed” value amounted to 69 mg/kg.
In the case of `CC(C)c1ccc(C=CC(=O)OCCN2C(=O)C3C4C=C(C(O)(c5ccccc5)c5ccccn5)C(C4=C(c4ccccc4)c4ccccn4)C3C2=O)cc1` (stereo not drawn) [Compound 347, 5-(α-Hydroxy-α-2-pyridylbenzyl)-N-[2′-(4″-isopropylcinnamoyloxy)ethyl]-7-(α-2-pyridylbenzylidene)-5-norbornene-2,3-dicarboximide], in the data set on Sprague Dawley rats [1] (setting [3]), the “Ave. bait consumed (as % of body mass)” value is reported as 0.58 % of body mass, the “Bait consumed (g) (of 3 g)” value is 1.3 g and the “Maximum toxicant consumed” value is 44 mg/kg.
Turning to `O=C1NC(=O)C2C3C(C(O)(c4ccccc4)c4ccccn4)=CC(C3=C(c3ccccc3)c3ccccn3)C12` (stereo not drawn) [NRB, 5-(α-Hydroxy-α-2-pyridylbenzyl)-7-(α-2-pyridylbenzylidene)-5-norbornene-2,3-dicarboximide, reference compound], in the data set with Sprague Dawley rats [2] (setting [6]), the “Ave. Toxic bait consumed” value is given as 2.81 g, the “Ave. toxic bait consumed (% of body mass)” value was 0.64 % of body mass and the “Maximum toxicant consumed” value turned out to be 64 mg/kg. Further, in the data set on Sprague Dawley rats [2] (setting [8]), the “Ave. Toxic bait consumed” value came out at 1.07 g, the “Ave. toxic bait consumed (% of body mass)” value is 0.34 % of body mass and the “Maximum toxicant consumed” value is 33 mg/kg. For the same molecule, in the data set on Sprague Dawley rats [2] (setting [9]), the “Ave. Toxic bait consumed” value is recorded as 1.05 g, the “Ave. toxic bait consumed (% of body mass)” value is on record as 0.30 % of body mass and the “Maximum toxicant consumed” value is 31 mg/kg.
